# “And” between values parts separate entries of the source, which are not always exact repeats. Equal values may be shown once. In all, about 410,000 compounds went through this assay and about 18,000 (4.4%) were called active. Inconclusive results, whose numbers are uncertain, are shown with a selection of clear calls. Rule as the data show it: active = activity change below about -60%; inconclusive = no clear call, values can overlap the other calls; inactive = above about -39%.
# Assay: qHTS Assay for inhibitors of the human cytomegalovirus (HCMV)
# Conditions: HFF cells, HCMV-luciferase reporter, 72 h; at 57.5 µM; hits give low values
# Outline: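 After 16 h attachment at 37C, HFF cells received test compound and HCMV-luciferase (1 PFU/cell); reporter luminescence read 72 h later, data normalized against buffer-only and known inhibitor Salinomycin.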
# % is scaled to controls: 0 for no effect and ±100 for the full control effect.
row,Structure (SMILES),"activity change, negative = inhibition"
1,Cn1c(=O)[nH]c(=O)c2c1nc(N1CCCCCC1)n2CCSc1nc2ccccc2[nH]1,inconclusive: -51.8%
2,COc1ccc(C(=O)Nc2nc(-c3nnn(-c4cc(OC)ccc4OC)c3C)ns2)cc1,inconclusive: -46.5%
3,CCCOc1cccc(C(=O)N2CCCCC2CCN2CCCCC2)c1 (centres undefined),inconclusive: -55.7%
4,COc1cccc(Cn2c(-c3cccs3)noc2=O)c1,inconclusive: -43.5%
5,CCC(C)N(C(=O)c1csnn1)C(C(=O)NC1CCCC1)c1ccc(F)cc1 (centres undefined),inconclusive: -51.6%
6,CC(Sc1nc2cc([N+](=O)[O-])ccc2n1-c1ccc(F)cc1)C(=O)NCc1ccc2c(c1)OCO2 (centres undefined),inactive: -21.6%
7,COC(CNC(=O)c1cc(S(=O)(=O)N2CCc3ccccc32)ccc1F)OC,inconclusive: -52.2%
8,Cc1ccc(NC(=O)CCc2nc3cccnc3n2-c2ccccc2)cc1Cl,inconclusive: -48.4%
9,O=C(Nc1ccc(F)cc1)c1ccc(S(=O)(=O)NCc2cccnc2)cc1,inconclusive: -54.4%
10,COc1ccc(-n2c(=S)[nH]c3cc(C(=O)NCc4ccc(F)cc4)ccc3c2=O)c(OC)c1,inconclusive: -55.1%
11,Cc1ccc(N(Cc2cccs2)C(=O)c2ccccc2[N+](=O)[O-])cc1,inconclusive: -57.4%
12,COc1cc(NC(=S)N2CCC(C(O)(c3ccccc3)c3ccccc3)CC2)cc(OC)c1,inactive: -19.3%
13,CCOC(=O)c1c(-c2cccs2)csc1NC(=O)COC(=O)c1c(C)noc1C,inconclusive: -46.6%
14,N=c1c2c(-c3ccccc3)c(-c3ccccc3)n(Cc3ccccc3)c2ncn1CCO,inconclusive: -49.3%
15,O=C(Nc1cccc(-c2cccc(Cl)c2)c1)C1CCN(C2CCC2)CC1,inconclusive: -44.2%
16,COC(=O)c1cc(C(=O)Nc2nnc(CC(C)C)s2)cc([N+](=O)[O-])c1,inconclusive: -41.4%
17,COc1cc(OC)c(N(C)S(=O)(=O)c2cccc(C(=O)OCc3c(C)noc3C)c2)cc1Cl,inconclusive: -47.4%
18,Cc1ccc2nc3c(c(Nc4ccc(C)c(C)c4)c2c1)CCC3,inconclusive: -51.3%
19,COc1cc(NC(=O)COc2ccccc2[N+](=O)[O-])ccc1NC(=O)c1cccs1,inconclusive: -47.8%
20,CN(CC(=O)Nc1ccccc1Br)C(=O)CN1CCN(Cc2ccc(Cl)cc2)CC1,inconclusive: -43.7%
21,O=C(NCc1ccco1)c1ccc(COc2cccc3ccccc23)cc1,inconclusive: -59.8%

row,Structure (SMILES),"activity change, negative = inhibition"
1,Fc1ccccc1N1CCN(c2ncnc3c2nc2n3CCCC2)CC1,active: -63.3%
2,COc1ccccc1COn1c(=O)c(-c2ccco2)[n+]([O-])c2ccccc21,inconclusive: -49.6%
3,CCOC(=O)c1c(NC(=O)C2(C)Cc3ccccc3C(=O)O2)sc2c1CCCC2 (centres undefined),active: -77.4%
4,CC1(C)CC(=O)c2sc(NC(=O)CCS(=O)(=O)c3ccccc3)nc2C1,inconclusive: -50.7%
5,COCCNC(=S)N/N=C/c1ccc(N2CCOCC2)cc1,active: -96.9%
6,O=C(Nc1ccnn1C1CCN(Cc2cccc(O)c2)CC1)C1CCCC1,inactive: -22%
7,O=C(Nc1cc(C(F)(F)F)ccc1F)C1CCCCC1,active: -106%
8,Brc1ccc(OCCOc2cccc3cccnc23)cc1,inactive: -34.1%
9,CC[C@H](C)C(=O)O[C@H]1CCC=C2C=C[C@H](C)[C@H](CC[C@@H]3C[C@@H](O)CC(=O)O3)[C@H]21,inconclusive: -52.4%
10,COc1ccc(CC(=O)NCC(=O)N/N=C(/C)c2ccco2)cc1,inconclusive: -50.8%
11,COc1ccc2cc(C(=O)C3CCCN(C(=O)c4snnc4C)C3)ccc2c1 (centres undefined),inconclusive: -42.1%
12,COCCCNC(=O)c1ccc(-n2c(-c3ccccc3)cc3c2CCCCC3)cc1,inconclusive: -56.9%
13,C/C(=N/Nc1nc(C)cc(C)n1)c1ccc(Br)cc1,inconclusive: -49.1%
14,CCCC(=O)N1CCCC1(C)C(=O)NCCc1ccccn1 (centres undefined),inactive: -16.4%
15,O=C(CNc1ccccc1F)Nc1cc(S(=O)(=O)N2CCCCC2)ccc1Cl,inactive: -26.4%
16,COC(=O)c1cc2oc3ccccc3c2n1CC(=O)Nc1ccc(F)c(Cl)c1,inactive: -16.1%
17,CCCOc1ccccc1NC(=O)/C=C/c1ccc(OC)c(S(=O)(=O)N2CCOCC2)c1,inactive: -2.21%
18,O=C(NCCN1CCC2(CC1)C(=O)NCN2c1cccc(F)c1)c1ccc2ccccc2c1,active: -101%
19,CC(C)(C)N(CC#CCC1(O)c2ccccc2-c2ccccc21)CCO,inconclusive: -46.8%
20,Cc1nc(CNS(=O)(=O)c2ccc(Br)cc2)cs1,inconclusive: -48.4%
21,CCN(CC)CCCN1C(=O)C2C(C(=O)Nc3ccc(C(C)C)cc3)C3C=CC2(O3)C1C(=O)NC1CCCCC1 (centres undefined),inactive: 42.6%

row,Structure (SMILES),"activity change, negative = inhibition"
1,COc1ccc(CNC(=O)CC2Oc3ccc(C)cc3NC2=O)cc1 (centres undefined),inconclusive: -41.8%
2,O=C1CC(SC(=S)C2CCCC2=O)C(=O)N1 (centres undefined),inconclusive: -42.2%
3,COc1ccc(-n2nc(C(=O)NCC(=O)N3CCCCCC3)c3ccccc3c2=O)cc1OC,inactive: -5.23%
4,COc1cccc(C(=O)NNC(=O)c2cccnc2)c1,inactive: 16.4%
5,CCCCCCc1nc(C(N)=O)c2[nH]c(=O)n(-c3ccc(OC)cc3OC)c2n1,inconclusive: -49.5%
6,CCn1nc(C(=O)N2CCN(Cc3nc4ccccc4s3)CC2)c2ccccc2c1=O,inactive: 1.73%
7,COc1cccc(CNC(=O)c2cc(=O)[nH]c3ccc(S(=O)(=O)N4CCCC4)cc23)c1,inconclusive: -52.3%
8,S=C(NCCSCc1c(Cl)cccc1Cl)Nc1ccccc1,inconclusive: -57.4%
9,CNC[C@@H]1Oc2cc(Br)ccc2S(=O)(=O)N([C@@H](C)CO)C[C@@H]1C,inactive: 8.16%
10,COc1ccc(NS(=O)(=O)c2cc(NC(=O)c3ccc(C)s3)ccc2N2CCOCC2)cc1,inactive: 0%
11,Cc1ccc(N2CCN(C(=O)C3CCN(S(=O)(=O)c4cccc5nsnc45)CC3)CC2C)cc1 (centres undefined),inconclusive: -46%
12,COc1cc(C(=O)N2CCN(c3cccc(C)c3C)CC2)cc(OC)c1OC,inconclusive: -49.2%
13,COc1ccc(CC(=O)N/N=C(/C)c2ccco2)cc1,inconclusive: -42.9%
14,CCOC(=O)c1c(C)n(Cc2ccc(F)cc2)c2ccc(O)cc12,inconclusive: 0%
15,COc1ccc(C)c2sc(=NC(=O)c3ccccc3)n(C)c12,inactive: 168%
16,CCc1nonc1NC(=O)c1oc2cc(C)c(C)cc2c1C,inactive: 58% and inactive: -34.9%
17,Cc1cc(/C=C(\C#N)C(N)=O)c(C)n1-c1ccc(N2CCOCC2)c([N+](=O)[O-])c1,active: -74.7%
18,Cc1nn(-c2ccccc2)c(N2CCCC2)c1/C=N/NC(=O)c1cc(-c2ccccc2)nc2ccccc12,inactive: 8.8%
19,CCC(=O)Nc1cccc(NC(=O)c2ccccc2Cl)c1,inconclusive: -42.4%
20,Cc1c(Cl)cccc1NC(=O)c1oc2ccc(S(=O)(=O)N3CCC4(CC3)OCCO4)cc2c1C,inconclusive: -57%
21,CCOC(=O)C1CCN(c2ccc(Cl)nn2)CC1,inconclusive: -41.8%

# Taken from above:
# Entry for COc1cc(C(=O)N2CCN(c3cccc(C)c3C)CC2)cc(OC)c1OC under activity change, negative = inhibition: inconclusive: -49.2%
# Entry for COc1ccc(CC(=O)N/N=C(/C)c2ccco2)cc1 under activity change, negative = inhibition: inconclusive: -42.9%
# Entry for CCC(=O)Nc1cccc(NC(=O)c2ccccc2Cl)c1 under activity change, negative = inhibition: inconclusive: -42.4%
# Entry for O=C1CC(SC(=S)C2CCCC2=O)C(=O)N1 (centres undefined) under activity change, negative = inhibition: inconclusive: -42.2%
# Entry for CCn1nc(C(=O)N2CCN(Cc3nc4ccccc4s3)CC2)c2ccccc2c1=O under activity change, negative = inhibition: inactive: 1.73%

# Remaining list, next part.

row,Structure (SMILES),"activity change, negative = inhibition"
1,CC1CN(O)C2CCc3c(no[n+]3[O-])C12O (centres undefined),inactive: -9.96%
2,CCc1ccc2c(c1)NC(=O)C2(C)Cc1ccc(F)cc1 (centres undefined),inactive: 5.72%
3,COc1ccc2c(c1)C(=O)C(=O)N2CCS(=O)(=O)c1ccccc1,inconclusive: -47.4%
4,CCCc1cc(=O)[nH]c(SCCN2C(=O)c3ccccc3C2=O)n1,inconclusive: -53.2%
5,COc1cc(Br)c(C2C(C#N)=C(N)Oc3n[nH]c(-c4cccnc4)c32)cc1OC (centres undefined),inconclusive: -42.6%
6,C[C@@H]1CN([C@H](C)CO)C(=O)CCCn2nncc2CO[C@@H]1CN(C)S(=O)(=O)c1ccc2c(c1)OCCCO2,inactive: -11.7%
7,Cc1ccc(NC(=O)C2CC(=O)N(c3ccc4c(c3)OCCO4)C2)cc1S(=O)(=O)N1CCCCCC1 (centres undefined),inconclusive: -41.8%
8,CCCCn1cnc2c(c(-c3ccccc3)c(-c3ccccc3)n2Cc2ccco2)c1=N,inactive: -15.1%
9,CCNC(=O)C1CCCN(C(=O)c2cccs2)CC1 (centres undefined),inactive: -7.62%
10,N#Cc1c(N2CCN(C(=O)c3ccccc3)CC2)nc(-c2ccccc2)c2c1CCCC2,inconclusive: -59%
11,Cc1cc(-c2csc3nc[nH]c(=S)c23)cc(C)c1C,inconclusive: -44.1%
12,CN(C)c1nc(N)nc(CSc2nnnn2-c2cccc3ccccc23)n1,inconclusive: -40.8%
13,COc1ccc(-c2nn(-c3ccccc3)cc2C(=O)Nc2nccs2)cc1OC,inconclusive: -50.3%
14,CC1CCN(Cc2cc(=O)oc3ccc(C(C)C)cc23)CC1,inconclusive: -41.9%
15,O=C1N=C(N2CCOCC2)S/C1=C/c1cc2c(cc1[N+](=O)[O-])OCO2,inconclusive: -43.8%
16,O=C(NCCc1c[nH]c2ccccc12)C(=O)NCC1OCCCN1S(=O)(=O)c1ccc(F)cc1 (centres undefined),inconclusive: -53.2%
17,CCc1cc(-c2nnn(CCC3COCCO3)c2CC)ccc1-c1cn(CCc2c[nH]c3ccccc23)nn1 (centres undefined),active: -80%
18,Cn1cc(Br)c(NC(=O)/C=C/C(=O)O)n1,inactive: 11.6%
19,O=S(=O)(N/N=C/c1ccccc1OCc1ccc(Cl)cc1)c1ccccc1,active: -83.4%
20,CCOC(=O)c1cc2c(=O)n3ccccc3nc2n(Cc2ccco2)c1=NC(=O)c1cccc(Br)c1,inactive: -34.3%
21,COc1ccc(OC)c(NC(=O)Cn2cc(C#N)c3cc(Br)ccc32)c1,active: -66.5%

# Source: PubChem BioAssay AID1259415 (National Center for Advancing Translational Sciences (NCATS), 2018)
